Experimental data published in paper PMC5564810.
No constants are given. Whether binding was seen depends on the method and setting. Binding seen in cells or lysates may run through a third protein. Some entries that bind do so weakly or less than the wild type.

The chains behind the UniProt entries cited, without tags or fusion partners. Where a name states a change or a piece, a line headed by the entry shows the natural chain unless it says otherwise. A line that says so, or that is headed by a name, gives the form on record, which may keep a tag or linker. Residues count along the entry.
UniProt P17931: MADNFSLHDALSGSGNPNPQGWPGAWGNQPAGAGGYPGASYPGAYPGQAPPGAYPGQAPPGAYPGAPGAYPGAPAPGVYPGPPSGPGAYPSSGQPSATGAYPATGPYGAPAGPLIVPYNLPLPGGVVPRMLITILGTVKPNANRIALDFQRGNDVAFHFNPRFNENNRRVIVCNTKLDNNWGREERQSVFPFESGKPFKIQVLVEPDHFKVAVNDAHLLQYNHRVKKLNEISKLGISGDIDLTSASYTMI
His-tagged G69-250 (Gal-3 residues 69-250): residues 69-250 of P17931
UniProt P08575, residues 26-1306: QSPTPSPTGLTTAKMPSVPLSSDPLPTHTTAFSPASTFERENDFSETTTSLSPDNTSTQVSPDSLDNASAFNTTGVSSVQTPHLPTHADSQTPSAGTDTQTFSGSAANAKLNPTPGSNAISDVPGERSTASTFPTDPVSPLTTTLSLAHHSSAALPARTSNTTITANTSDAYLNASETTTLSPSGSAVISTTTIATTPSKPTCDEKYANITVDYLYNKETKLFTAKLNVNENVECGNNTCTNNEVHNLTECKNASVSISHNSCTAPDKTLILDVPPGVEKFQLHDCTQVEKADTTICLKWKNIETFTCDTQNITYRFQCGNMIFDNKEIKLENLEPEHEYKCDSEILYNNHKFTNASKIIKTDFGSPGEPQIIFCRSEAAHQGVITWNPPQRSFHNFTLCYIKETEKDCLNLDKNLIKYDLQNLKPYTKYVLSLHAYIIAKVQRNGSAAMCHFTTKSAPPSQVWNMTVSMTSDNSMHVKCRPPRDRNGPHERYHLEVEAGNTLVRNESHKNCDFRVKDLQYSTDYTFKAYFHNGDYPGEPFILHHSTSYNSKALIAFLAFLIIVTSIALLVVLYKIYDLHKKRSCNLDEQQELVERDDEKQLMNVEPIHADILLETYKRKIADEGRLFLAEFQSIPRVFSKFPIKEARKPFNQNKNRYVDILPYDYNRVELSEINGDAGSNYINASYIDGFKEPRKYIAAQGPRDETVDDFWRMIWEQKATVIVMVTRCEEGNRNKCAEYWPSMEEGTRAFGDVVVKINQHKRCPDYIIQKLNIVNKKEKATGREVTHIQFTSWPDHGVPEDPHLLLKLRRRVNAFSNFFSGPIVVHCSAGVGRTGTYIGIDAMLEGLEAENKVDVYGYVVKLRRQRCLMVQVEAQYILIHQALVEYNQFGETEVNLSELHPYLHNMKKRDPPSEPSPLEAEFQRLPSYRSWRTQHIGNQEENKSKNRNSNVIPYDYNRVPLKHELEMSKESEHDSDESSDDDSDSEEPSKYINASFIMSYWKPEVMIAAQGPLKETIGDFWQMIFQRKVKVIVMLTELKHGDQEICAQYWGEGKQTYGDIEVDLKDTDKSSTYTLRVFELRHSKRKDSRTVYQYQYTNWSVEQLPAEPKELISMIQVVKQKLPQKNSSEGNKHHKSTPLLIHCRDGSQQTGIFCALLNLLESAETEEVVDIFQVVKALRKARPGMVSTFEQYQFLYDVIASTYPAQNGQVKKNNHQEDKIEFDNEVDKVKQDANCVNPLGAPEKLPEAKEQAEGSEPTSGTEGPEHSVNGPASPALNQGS

Tests used:
[1] = molecular target: His-tagged G69-250 (Gal-3 residues 69-250) (human) (UniProt P17931); experiment: pull-down; 20 ug His-Gal-3 or His-G69-250 immobilised on 20 uL Ni-NTA beads (2 h, 4 C), washed in PBS, incubated with Jurkat cell lysate (5x10^6 cells) 2 h at 4 C; CD45 detected by western blotting; only the target purified
[2] = molecular target: His-tagged full-length Gal-3 (galectin-3) (human) (UniProt P17931); experiment: as above

Q: How did the binding [1] turn out when “CD45 (from UniProt P08575 26-1306) (receptor)” was run?
A: The binding was “binds”.

Q: What about the binding [2] of the same substance?
A: Its binding is “binds”.
